From PMC7565984, “A Phosphorylation-Induced Switch in the Nuclear Localization Sequence of the Intrinsically Disordered NUPR1 Hampers Binding to Importin” (Biomolecules, 2020) come the findings set out here.

Structures are written as SMILES. Where a SMILES comes first, the peptide text is derived from it.

The test system of one data set is ΔImpα3. The experiment in a line: Thermal denaturation of the ΔImpα3 complex followed by fluorescence and far-UV CD. The following applies: 60 K/h, peptide 10 μM, importin 4 μM. More on the design: species or system human.
For a further data set, the system named is Impα3. The following applies: 60 K/h, peptide 10 μM, importin 4 μM.
Where [1] appears, read: ellipticity at 222 nm, 298 to 343 K, pH 7.0.
Setting [2] is: pH 7.0, 50-mM phosphate, 298 to 358 K.

In the case of `CC(=O)N[C@@H](Cc1ccc(O)cc1)C(=O)N[C@H](C(=O)N[C@@H](CC(N)=O)C(=O)N[C@@H](CCCNC(=N)N)C(=O)N1CCC[C@H]1C(=O)N[C@@H](CO)C(=O)N1CCC[C@H]1C(=O)NCC(=O)NCC(=O)N[C@@H](Cc1c[nH]cn1)C(=O)N[C@@H](CCC(=O)O)C(=O)N[C@@H](CCCNC(=N)N)C(=O)N[C@@H](CCCCN)C(=O)N[C@@H](CC(C)C)C(=O)N[C@H](C(=O)N[C@H](C(=O)N[C@@H](CCCCN)C(=O)N[C@@H](CC(C)C)C(=O)N[C@@H](CCC(N)=O)C(=O)N[C@@H](CC(N)=O)C(=O)N[C@@H](CO)C(=O)N[C@@H](CCC(=O)O)C(N)=O)[C@@H](C)O)C(C)C)[C@@H](C)O` [wt] (Ac-YTNRPSPGGHERKLVTKLQNSE-NH2), the “Difference in thermal denaturation midpoint between isolated ΔImpα3 and the complex, far-UV CD” value in the data set on ΔImpα3 (setting [1]) is given as “no differences”. Moreover, in the data set on ΔImpα3 (setting [2]), the “Variation of the apparent thermal denaturation midpoint of ΔImpα3 on complex formation, fluorescence” value was “did not show a variation”. In addition, in the data set with Impα3 (setting [1]), the “Difference in thermal denaturation midpoint between isolated Impα3 and the complex, far-UV CD” value was “no differences”. Besides, the “Variation of the apparent thermal denaturation midpoint of Impα3 on complex formation, fluorescence” value in the data set with Impα3 (setting [2]) is on record as “did not show a variation”.
